Structures can show the parent of a compound that is named as a salt. The list shows a part of the results. Hit calls seldom repeat between salt and free forms of one compound.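 Kinases, fused to nanoluciferase, were expressed in K562 cells; luminescence was measured every 4 h from 2 to 18 h as percent of control (DMSO = 100%, positive control = 0%). A time point is decreased if signal falls significantly (2 sigma). Hits were called by the authors by a rule that is not shown; the count of time points alone does not decide it.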
Target: PLK1 (UniProt P53350)
Assay: number of time points (of 5) at which kinase-Nluc abundance scored as decreased, DMSO-normalised (count); higher = more persistent destabilization
Details: K562; 2-18 h

Sequences of proteins named here, by UniProt entry; tags and fusion partners are left off. A change or cut given only in a name is not applied to a line headed by its entry.
UniProt P53350, whole entry: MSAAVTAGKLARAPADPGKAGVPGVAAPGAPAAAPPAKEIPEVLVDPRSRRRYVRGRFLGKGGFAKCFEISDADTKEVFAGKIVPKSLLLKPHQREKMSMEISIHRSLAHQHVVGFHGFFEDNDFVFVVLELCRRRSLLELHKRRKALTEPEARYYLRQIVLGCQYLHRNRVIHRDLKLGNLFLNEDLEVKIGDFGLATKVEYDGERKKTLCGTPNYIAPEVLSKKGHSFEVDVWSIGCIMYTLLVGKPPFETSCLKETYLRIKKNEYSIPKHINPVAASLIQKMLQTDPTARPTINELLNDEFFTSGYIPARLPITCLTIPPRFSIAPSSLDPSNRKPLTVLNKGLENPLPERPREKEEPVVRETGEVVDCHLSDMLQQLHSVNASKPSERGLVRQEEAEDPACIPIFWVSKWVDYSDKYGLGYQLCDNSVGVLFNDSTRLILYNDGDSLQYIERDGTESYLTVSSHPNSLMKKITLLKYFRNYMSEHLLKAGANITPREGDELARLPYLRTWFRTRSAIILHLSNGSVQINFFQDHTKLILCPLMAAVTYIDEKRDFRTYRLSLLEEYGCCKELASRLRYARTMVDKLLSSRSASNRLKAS
UniProt Q13131: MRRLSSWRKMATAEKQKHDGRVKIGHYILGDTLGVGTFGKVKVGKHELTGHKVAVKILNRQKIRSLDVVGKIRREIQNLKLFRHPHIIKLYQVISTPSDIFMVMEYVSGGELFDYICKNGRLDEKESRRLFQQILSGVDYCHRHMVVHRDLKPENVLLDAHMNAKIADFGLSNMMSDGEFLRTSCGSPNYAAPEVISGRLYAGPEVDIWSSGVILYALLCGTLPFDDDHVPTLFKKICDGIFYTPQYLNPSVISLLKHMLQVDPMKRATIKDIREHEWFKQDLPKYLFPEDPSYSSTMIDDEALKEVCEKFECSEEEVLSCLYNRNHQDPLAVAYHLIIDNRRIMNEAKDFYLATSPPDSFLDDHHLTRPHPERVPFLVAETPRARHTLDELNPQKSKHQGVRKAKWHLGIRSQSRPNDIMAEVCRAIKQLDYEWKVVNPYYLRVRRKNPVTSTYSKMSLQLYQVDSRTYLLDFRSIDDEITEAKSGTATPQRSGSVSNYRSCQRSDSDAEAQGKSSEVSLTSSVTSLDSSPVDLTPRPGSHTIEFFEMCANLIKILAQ

SMILES	number of time points
CNc1nc(Nc2ccc(C(=O)N3CCOCC3)cc2OC)nc2[nH]cc(Cl)c12 (2.5 µM)	0
CC#CC(=O)N1CC[C@@H](n2c(=O)n(-c3ccc(Oc4ccccc4)cc3)c3c(N)ncnc32)C1 [Tirabrutinib] (10 µM)	0
CCc1c(C(=O)NNC(=O)C(O)c2cc(F)cc(F)c2)ccc(O)c1C (stereo not drawn) (10 µM)	0
CNC(=O)c1ccc(C)c(-n2c(C)cc(OCc3ccc(F)cc3F)c(Br)c2=O)c1 (10 µM)	0
O=C(NOCC(O)CO)c1cc(Br)c(F)c(F)c1Nc1ccc(I)cc1F (stereo not drawn) (2.5 µM)	0

Target: PRKAA1 (UniProt Q13131)
Assay: as above
Details: K562; 2-18 h

SMILES	number of time points
Cc1cc(=O)oc2c(C=O)c(O)ccc12 (10 µM)	0
Nc1nc(F)nc2c1ncn2[C@@H]1O[C@H](CO)[C@@H](O)[C@@H]1O [Fludarabine] (10 µM)	0
CC(C)(C)c1cc(O)ccc1O (10 µM)	0
COc1ccc(Cl)c(Nc2nc3ccccc3nc2NS(=O)(=O)c2cccc(NC(=O)C(C)(C)N)c2)c1 [Pilaralisib] (10 µM)	0
Cc1ccc(CNc2ncnc3ccc(-c4ccc(CO)o4)cc23)o1 (10 µM)	0
C=CC(=O)Nc1cccc(Nc2nc(Nc3ccc(N4CCN(C(C)=O)CC4)cc3OC)ncc2C(F)(F)F)c1 [Rociletinib] (10 µM)	2
Nc1ncnc2c1c(-c1cccc(OCc3ccccc3)c1)cn2C1CC(CN2CCC2)C1 (stereo not drawn) (2.5 µM)	0
Oc1cc(O)c2cc(O)c(-c3cc(O)c(O)c(O)c3)[o+]c2c1 [Delphinidin (chloride)] (10 µM)	1
CCCS(=O)(=O)Nc1ccc(F)c(C(=O)c2c[nH]c3ncc(-c4ccc(Cl)cc4)cc23)c1F [Vemurafenib] (10 µM)	0
COCCNc1nc2ccc(C#CC3(O)CCCCC3)cc2n1-c1ccnc(N)n1 (10 µM)	0
CCC(C)N1c2ccccc2C(=O)N(C)c2cnc(Nc3ccc(C(=O)N4CCC(N5CCN(C)CC5)CC4)cc3OC)nc21 (stereo not drawn) (2.5 µM)	0
Cc1cc(CN2CCN(c3c(Br)cnc4nc(-c5ccc(N6CCN(C)CC6)cc5)[nH]c34)CC2)no1 (2.5 µM)	0
O=C(CSC1=NCCN1)NC1CCCCCC1 [ICCB-19 (hydrochloride)] (2.5 µM)	0
FC(F)(F)c1ccc(CNc2ccc(Cc3c[nH]c4ncccc34)cn2)cc1 (10 µM)	0
c1ccc(-c2[nH]ncc2-c2ccnc3ccccc23)nc1 (10 µM)	0
CC#CC(=O)N1CC[C@@H](n2c(=O)n(-c3ccc(Oc4ccccc4)cc3)c3c(N)ncnc32)C1 [Tirabrutinib (hydrochloride)] (10 µM)	0
CC1=C(C(=O)O)N2C(=O)[C@@H](NC(=O)[C@H](N)C3=CCC=CC3)[C@H]2SC1 [Cephradine] (10 µM)	0
Cn1cc(-c2ccc3nnc(Sc4ccc5ncccc5c4)n3n2)cn1 (10 µM)	0
CC(=O)c1c(C)cc2cccc(O)c2c1O [Nepodin] (10 µM)	0

SMILES	number of time points
NCCNS(=O)(=O)c1cccc2c(Cl)cccc12 [A-3 (hydrochloride)] (10 µM)	0
N#Cc1c(C2CCNCC2)cc(-c2c(O)cccc2OCC2CC2)nc1N [ACHP (Hydrochloride)] (10 µM)	0
C[C@@H]1COCCN1c1cc(C2([S@@](C)(=N)=O)CC2)nc(-c2ccnc3[nH]ccc23)n1 [(S)-Ceralasertib] (10 µM)	0
NC(=O)c1nc(Nc2ccccc2)sc1NC(=O)C1CCCCC1 (10 µM)	0
Cc1cc(Nc2ncnc3ccc(NC4=NC(C)(C)CO4)cc23)ccc1Oc1ccn2ncnc2c1 [Tucatinib (hemiethanolate)] (2.5 µM)	0
Cc1ccc(C(=O)Nc2ccc(Oc3cc4cnn(C)c4cc3-c3cn[nH]c3)c(F)c2)c(=O)n1-c1ccc(F)cc1 [Merestinib dihydrochloride] (2.5 µM)	0
O=C1Nc2ccc(C(=O)c3ccco3)cc2C1=Cc1cc(Cl)c(O)c(Cl)c1 (2.5 µM)	0
C=CC(=O)Nc1cc(Nc2ncc(Cl)c(-c3c[nH]c4ccccc34)n2)c(OC)cc1N(C)CCN(C)C [Mutant EGFR inhibitor] (2.5 µM)	0
C[C@@H](c1ccc(-c2ccccc2)c(F)c1)c1cc(NC(=N)N2CCOCC2)on1 [Rimacalib] (10 µM)	0
Cn1nccc1Nc1nccc(-c2ccn([C@H](CO)c3ccc(Cl)c(F)c3)c(=O)c2)n1 [Ravoxertinib hydrochloride] (10 µM)	0
Oc1cc2c(cc1O)C(Cc1cccc3ccccc13)NCC2 (stereo not drawn) (10 µM)	0
O=C1N[C@@H](Cc2c[nH]c3ccccc23)C(=O)N2CCC[C@@H]12 [Brevianamide F] (10 µM)	0
CCS(=O)(=O)Nc1ccc2[nH]c(O)c(C(=Nc3ccc(CN4CCCCC4)cc3)c3ccccc3)c2c1 [Hesperadin] (2.5 µM)	2
O=C1NC(=O)/C(=C/c2ccc3nccnc3c2)S1 (10 µM)	0
CNc1nc(Nc2ccc(C(=O)N3CCOCC3)cc2OC)nc2[nH]cc(Cl)c12 (2.5 µM)	0
CC#CC(=O)N1CC[C@@H](n2c(=O)n(-c3ccc(Oc4ccccc4)cc3)c3c(N)ncnc32)C1 [Tirabrutinib] (10 µM)	0
CCc1c(C(=O)NNC(=O)C(O)c2cc(F)cc(F)c2)ccc(O)c1C (stereo not drawn) (10 µM)	0
CNC(=O)c1ccc(C)c(-n2c(C)cc(OCc3ccc(F)cc3F)c(Br)c2=O)c1 (10 µM)	0
O=C(NOCC(O)CO)c1cc(Br)c(F)c(F)c1Nc1ccc(I)cc1F (stereo not drawn) (2.5 µM)	0

— the supplement of paper PMC12823440, “Inhibitors supercharge kinase turnover through native proteolytic circuits” (Nature, 2025)
